Data taken from PubChem BioAssay AID2685 (National Center for Advancing Translational Sciences (NCATS), 2010).
The other results are listed elsewhere or left out. The main result of the screen is listed elsewhere. These columns were measured beside it and carry no call. The list favours compounds with an active or inconclusive main result. Potencies come from curve fits of mixed quality, noted in brackets.

Test: qHTS Assay for Lipid Storage Modulators in Drosophila S3 Cells;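 as to cell number change: cells counted by Cell Tracker Red CMTPX staining in the red channel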
Details: BODIPY lipid droplet fluorescence, 18-24 h; for cell number change: measured here: cell count max response, cells fed with added oleic acid
Method in brief: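 Drosophila S3 cells got compounds at several concentrations plus oleic acid (400 uM solution). Laser-scanning cytometry with 488 nm excitation read lipid droplets at 500-530 nm and cells at 575-640 nm. Percent activity was relative to 20 uM Triacsin C.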

[1] = measured here: lipid fluorescence (Fed channel) AC50, cells fed with added oleic acid
[2] = measured here: cell number channel AC50, cells fed with added oleic acid

SMILES | cell number change | AC50 [1] | AC50 [2]
CC(C)c1nc(SCC(=O)Nc2cccc(C(F)(F)F)c2)c2c(=O)n(C)c(=O)n(C)c2n1 | -22.6% | 29.1 µM [falling, single point] | –
C/C(=N\NC(N)=O)c1ccc(Cl)cc1 | -29.4% | 29.1 µM [falling, single point] | –
NS(=O)(=O)c1ccc(CCNS(=O)(=O)c2cccc3nsnc23)cc1 | -1.35% | 6.51 µM [falling, single point] | –
COc1cccc(/C=C/C(=O)OCC(=O)c2ccc3c(c2)NC(=O)CO3)c1 | 3.62% | – | –
CCCCCn1c(=O)[nH]c2cc(C(=O)NCc3ccccn3)ccc2c1=O | -20.6% | 0.00461 µM [falling, full curve, poor fit] | –
O=S(=O)(c1ccccc1)N(CC1CO1)c1ccccc1 (centres undefined) | -18.9% | 29.1 µM [falling, single point] | –
COC(=O)C(NC(=O)COc1ccccc1)(Nc1nc2c(s1)CCCC2)C(F)(F)F (centres undefined) | -21.3% | 5.8 µM [falling, single point] | –
CCOc1ccc(NC(=O)N(CCC(C)C)C2CCN(C(C)=O)CC2)cc1 | – | – | 3.26 µM [rising, single point]
N#Cc1cc(C#N)c(SCC(=O)N2CC(=O)Nc3ccccc32)nc1N | 6.22% | 29.1 µM [falling, single point] | –
NC(=NC1CCCCC1)c1ccc(Cl)cc1 | – | 0.92 µM [rising, full curve] | 1.03 µM [rising, full curve]
COc1ccccc1NS(=O)(=O)c1cc(NC(=O)c2sccc2C)ccc1N1CCOCC1 | 11.4% | 4.61 µM [rising, full curve] | –
O=C(COc1ccccc1C(=O)NCc1ccncc1)Nc1ccc(Br)cc1 | 41.3% | – | 8.2 µM [rising, single point]
CCOc1ccc(N(CC(=O)N2CCN(c3ccccc3OC)CC2)S(=O)(=O)c2ccc(F)cc2)cc1 | -4.62% | 18.4 µM [falling, single point] | –
COc1cc(C)cc2oc(=O)c(CC(=O)N3CCN(C(=O)C4COc5ccccc5O4)CC3)c(C)c12 (centres undefined) | 14.1% | 4.61 µM [falling, single point] | 0.291 µM [rising, full curve, poor fit]
CCCCNC(=O)CSc1nc(N)c(C(=O)Nc2ccc(OC)cc2)s1 | 3.15% | 1.64 µM [rising, partial curve, poor fit] | –
Cc1ccnc(NC(=O)c2ccccc2NC(=O)c2ccccc2)c1 | 11.8% | 0.0291 µM [rising, full curve, poor fit] | –
CCc1noc(N)c1C(=O)Nc1ccc(Cl)cc1 | -3.36% | – | –
CC(C)Oc1ccc(-c2cc(=O)[nH]c(=O)[nH]2)cc1 | 3.25% | 5.8 µM [falling, partial curve] | –
Cc1ccsc1/C=N/Nc1ccc(F)cc1F | -26.1% | 0.517 µM [falling, full curve] | 0.184 µM [falling, full curve, poor fit]
N#Cc1ccccc1OCC(=O)N1CCN(C(=O)c2ccco2)CC1 | -6.73% | – | –
O=C(CCCc1ccccc1)NCCC1=CCCCC1 | -27.4% | 20.6 µM [falling, single point] | –

SMILES | cell number change | AC50 [1] | AC50 [2]
CCOC(=O)C1=C(COC(=O)/C=C/c2cc(Br)ccc2F)NC(=O)NC1C (centres undefined) | -21% | 6.51 µM [falling, single point] | 4.61 µM [falling, single point]
CCC(CC)c1nnc(NC(=O)/C=C/c2ccco2)s1 | -19.6% | 8.2 µM [falling, partial curve, poor fit] | –
COc1ccc(CN2CCN(C(=O)Cn3ncn4cccc4c3=O)CC2)c(OC)c1OC | 16.7% | 29.1 µM [rising, single point] | –
O=C(Nc1c(-c2ccccc2)nc2sccn12)c1ccccc1 | 9.87% | – | –
COc1ccc2[nH]c(C(=O)O)c(NC(=O)c3cc(OC)c(OC)c(OC)c3)c2c1 | 9.93% | 3.26 µM [rising, full curve, poor fit] | –
COc1cc2c(cc1OC)CN(C(=O)c1ccc([N+](=O)[O-])o1)CC2 | – | 16.4 µM [falling, single point] | –
CCc1ccc(C(=O)N/N=C(\C)c2ccncc2)s1 | 19% | 0.116 µM [rising, full curve, poor fit] | –
CCOc1ccc(OCCC(=O)OCC(=O)N2CCN(S(=O)(=O)c3ccc(C)cc3)CC2)cc1 | -2.81% | – | –
CC(C)CNC(=S)N1CCC(C(=O)c2ccc3c(c2)OCCO3)CC1 | -30.6% | – | 29.1 µM [falling, single point]
CCn1cc(CN2CCCC(CNS(=O)(=O)c3cccc4cccnc34)C2)cn1 (centres undefined) | -8.38% | – | –
COc1ccc(S(=O)(=O)N2CCCC(C(=O)O)C2)cc1Cl (centres undefined) | -55.2% | 0.13 µM [falling, full curve, poor fit] | 23.1 µM [falling, partial curve, poor fit]
CCOC(=O)c1sc(NC(C)=O)nc1-c1ccccc1 | -17.7% | – | –
CCc1nccn1S(=O)(=O)c1cc(Br)ccc1OC | 20.8% | 2.06 µM [rising, partial curve] | –
COc1cc(S(=O)(=O)N2CCCCC2)ccc1NC(=O)c1ccncc1 | 2.63% | – | –
CN1C/C(=C/c2ccsc2)C(=O)/C(=C/c2ccsc2)C1 | -15.1% | 14.6 µM [falling, partial curve] | –
COc1ccc(CN(Cc2cc3cccc(C)c3[nH]c2=O)C(=O)N(C)C)cc1 | 30% | – | –
Cc1nc(-c2ccc(NC(=O)c3ccccc3Br)cc2)cs1 | 6.74% | 1.84 µM [rising, full curve, poor fit] | –
Cc1cc(NC(=O)C2C3C(=O)N(Cc4ccc(Cl)cc4)C(C(=O)NCc4ccccc4)C34C=CC2(C)O4)no1 (centres undefined) | 38.9% | 6.51 µM [rising, single point] | 13 µM [rising, partial curve, poor fit]
Cc1ccccc1CN1CCN(Cc2cc(=O)c3ccccc3[nH]2)CC1CCO (centres undefined) | 14.5% | – | –
Cc1ccc(C)c(S(=O)(=O)N2CCCOC2CNC(=O)C(=O)NCCc2ccco2)c1 (centres undefined) | 14.7% | – | 0.116 µM [rising, full curve, poor fit]
CN(C)/N=C/C=C1\CCC/C(=C\c2ccc(F)c(F)c2)C1=O | 0.809% | – | –

SMILES | cell number change | AC50 [1] | AC50 [2]
CCN(CC)C(=O)c1sc2nc(-c3cccs3)cc(-c3cccs3)c2c1N | -53.6% | 1.64 µM [falling, full curve] | 1.46 µM [falling, full curve]
CCOC(=O)COc1ccc(S(=O)(=O)N2CCN(c3ccccc3)CC2)cc1 | -46.8% | 29.1 µM [falling, single point] | 29.1 µM [falling, single point]
Cc1noc(C)c1C(=O)Nc1nc(-c2cccs2)cs1 | 7.89% | 29.1 µM [falling, single point] | –
COc1cc(OC)cc(C2=NCCN2)c1 | 0.159% | – | –
COc1ccc(NC(=O)c2ccccc2[N+](=O)[O-])cc1OC | -3.66% | 29.1 µM [falling, single point] | –
COc1ccc(C(CNC(=O)COc2ccccc2C)N2CCCC2)cc1 (centres undefined) | -1.38% | – | –
CCOC(=O)[C@H]1[C@H]2COc3ccc(C)cc3[C@@H]2N2C(=O)CN(Cc3ccc(F)cc3)C(=O)[C@@]12C | 3.69% | 0.206 µM [rising, full curve, poor fit] | –
COc1cccc(OCc2cc(C(=O)N3CCCC3c3ccccn3)no2)c1 (centres undefined) | 8.21% | 0.103 µM [falling, full curve, poor fit] | –
CCCc1nn2c(=O)cc(CSCC(=O)Nc3cccc(C)c3)nc2s1 | – | 0.517 µM [falling, single point] | –
CCCNC(=O)CCn1nc(-c2ccc(Cl)cc2)c2ccccc2c1=O | 18.6% | 4.61 µM [rising, full curve] | –
Cc1nnc(SCCn2c(Br)nc3c2c(=O)n(C)c(=O)n3C)s1 | 31% | – | 29.1 µM [rising, single point]
C=Cn1cc[n+](CC(=O)c2ccc(Cl)cc2)c1 | 14.1% | 29.1 µM [rising, single point] | –
COc1ccc(C(CNC(=O)c2cccc(S(=O)(=O)N3CCCC(C)C3)c2)N(C)C)cc1 (centres undefined) | -6.59% | 0.184 µM [rising, full curve, poor fit] | –
COc1cc(/C=N/NC(=O)c2ccncc2)ccc1OCC(=O)Nc1ccc(C)c(C)c1 | 15.4% | – | –
CCOC(=O)c1ccccc1NC(=O)COC(=O)c1ccc(C)c(S(=O)(=O)N2CCOCC2)c1 | -61.5% | – | 11.6 µM [falling, partial curve]
CC(/C=N/N1CCN(Cc2ccccc2)CC1)=C\c1ccccc1 | -19.4% | 29.1 µM [falling, single point] | –
Cc1cccc(S(=O)(=O)Nc2nc3ccccc3nc2Nc2ccc3c(c2)OCO3)c1 | 25.5% | 0.00461 µM [rising, full curve, poor fit] | 0.058 µM [rising, full curve, poor fit]
COc1cccc(S(=O)(=O)Nc2ccc(C(=O)N3CCN(C(=O)c4ccco4)CC3)cc2)c1 | -32% | 9.2 µM [falling, partial curve] | 7.31 µM [falling, full curve, poor fit]
Cc1ccc(NC(=O)C2CCCN(S(=O)(=O)c3ccc(-n4cnnn4)cc3)C2)cc1 (centres undefined) | 135% | – | 29.1 µM [rising, partial curve]

As a working copy, part of the list above:
SMILES | cell number change | AC50 [1] | AC50 [2]
CCC(CC)c1nnc(NC(=O)/C=C/c2ccco2)s1 | -19.6% | 8.2 µM [falling, partial curve, poor fit] | –
COc1ccc(CN2CCN(C(=O)Cn3ncn4cccc4c3=O)CC2)c(OC)c1OC | 16.7% | 29.1 µM [rising, single point] | –
O=C(Nc1c(-c2ccccc2)nc2sccn12)c1ccccc1 | 9.87% | – | –
